The list is a part of this screen's results and no random one: it gathers tests that were run many times, whatever their T/C, doses with no T/C, and many T/C values between a quarter and a half above the control. Other doses and runs of a compound stand elsewhere. T/C gives the treated animals as a percentage of the vehicle group. Schedules are NCI's codes, taken here to give the interval after Q, in days (D) or hours (H), and the number of doses after X. Some T/C values carry the count of animals alive at the toxicity check (mostly the fifth day); where none is given, no animal had died by that day. Some doses have a count of surviving animals in place of a T/C: the source files T/C as zero there, which appears to mark a toxic dose or a test without result, not a measured value. Survivors were counted at the toxicity check, usually on the fifth day, unless a day is given; later deaths do not show. Some entries were tested several times; the results are listed from low to high.
System: CD8F1 mice, subcutaneous mammary adenocarcinoma, T/C%
Experiment: NCI In Vivo Anticancer Drug Screen. Data for tumor model Mammary Adenocarcinoma CD8F1 (subcutaneous) in CD8F1
Conditions: higher T/C = larger tumour
How it was run: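 Compound-treated versus vehicle-treated mice with transplantable tumors; survival or tumor size compared as T/C.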

[1] = T/C endpoint: median tumor weight (est.), dose: 200.0 mg/kg/injection, schedule: Q07DX005 (ip), vehicle: Klucel (hydroxypropylcellulose) (HPC)
[2] = T/C endpoint: median tumor weight (est.), dose: 100.0 mg/kg/injection, schedule: Q07DX005 (ip), vehicle: Klucel (hydroxypropylcellulose) (HPC)

Cc1c2cc[n+](CCN3CCCCC3)cc2c(C)c2c1[nH]c1ccc(O)cc12
T/C (T/C endpoint: median tumor weight change, dose: 31.25 mg/kg/injection, schedule: Q01DX001 (ip), vehicle: suspension in saline, evaluated on day 25): 76 % of control
T/C (T/C endpoint: median tumor weight change, dose: 31.25 mg/kg/injection, schedule: Q01DX001 (ip), vehicle: suspension in saline, evaluated on day 28): 55 % of control
T/C (T/C endpoint: median tumor weight change, dose: 31.25 mg/kg/injection, schedule: Q01DX001 (ip), vehicle: suspension in saline, evaluated on day 36): 50 % of control
T/C (T/C endpoint: median tumor weight change, dose: 31.25 mg/kg/injection, schedule: Q01DX001 (ip), vehicle: suspension in saline, evaluated on day 43): 75 % of control
T/C (T/C endpoint: median tumor weight change, dose: 62.5 mg/kg/injection, schedule: Q01DX001 (ip), vehicle: suspension in saline, evaluated on day 25): 18 % of control [9 of 10 alive on day 25]
T/C (T/C endpoint: median tumor weight change, dose: 62.5 mg/kg/injection, schedule: Q01DX001 (ip), vehicle: suspension in saline, evaluated on day 28): 49 % of control
T/C (T/C endpoint: median tumor weight change, dose: 62.5 mg/kg/injection, schedule: Q01DX001 (ip), vehicle: suspension in saline, evaluated on day 36): 5 % of control [8 of 10 alive on day 36]
T/C (T/C endpoint: median tumor weight change, dose: 62.5 mg/kg/injection, schedule: Q01DX001 (ip), vehicle: suspension in saline, evaluated on day 43): 42 % of control
survivor count (T/C endpoint: median tumor weight change, dose: 125.0 mg/kg/injection, schedule: Q01DX001 (ip), vehicle: suspension in saline): 0 of 10 on day 36, 0 of 10 on day 43, 1 of 10 on day 25, 5 of 10 on day 28
survivor count (T/C endpoint: median tumor weight change, dose: 250.0 mg/kg/injection, schedule: Q01DX001 (ip), vehicle: suspension in saline): 0 of 10 on day 25

CN(C)N=Nc1ccc(S(N)(=O)=O)cc1
T/C (T/C endpoint: median tumor weight (est.), dose: 200.0 mg/kg/injection, schedule: Q07DX005 (ip), vehicle: Klucel (hydroxypropylcellulose) (HPC), evaluated on day 30): 138 % of control

CCCCCCCCNc1cc2c3c(c1)CCCN3CCC2
survivor count (T/C endpoint: median tumor weight (est.), dose: 12.0 mg/kg/injection, schedule: Q07DX005 (ip), vehicle: Klucel (hydroxypropylcellulose) (HPC)): 2 of 10 on day 30
survivor count (T/C endpoint: median tumor weight (est.), dose: 24.0 mg/kg/injection, schedule: Q07DX005 (ip), vehicle: Klucel (hydroxypropylcellulose) (HPC)): 0 of 10 on day 30

CS(=O)(=O)OCCCCOS(C)(=O)=O
survivor count [1]: 0 of 10 on day 30

C/C(=N\N=C(/[Se])N1CC2CCC(CC2)C1)c1ccccn1
T/C (T/C endpoint: median tumor weight change, dose: 31.25 mg/kg/injection, schedule: Q01DX001 (ip), vehicle: Klucel (hydroxypropylcellulose) (HPC), evaluated on day 29): 130 % of control
survivor count (T/C endpoint: median tumor weight change, dose: 125.0 mg/kg/injection, schedule: Q01DX001 (ip), vehicle: Klucel (hydroxypropylcellulose) (HPC)): 2 of 10 on day 32

Cc1c(N)nc([C@H](CC(N)=O)NC[C@H](N)C(N)=O)nc1C(=O)N[C@H](C(=O)N[C@H](C)[C@@H](O)CC(=O)N[C@H](C(=O)NC(O[C@@H]1O[C@@H](C)[C@@H](N)[C@@H](O)[C@H]1O)C(O)c1nc(-c2nc(C(=O)NCCCCN)cs2)cs1)[C@@H](C)O)[C@@H](O[C@@H]1O[C@@H](CO)[C@@H](O)[C@H](O)[C@@H]1O[C@H]1O[C@H](CO)[C@@H](O)[C@H](OC(N)=O)[C@@H]1O)c1c[nH]cn1 (stereo not given in full)
T/C (T/C endpoint: median tumor weight change, dose: 2.0 mg/kg/injection, schedule: Q01DX001 (ip), vehicle: saline, evaluated on day 33): 130 % of control

COc1cc(C[C@H]2c3cc(OC)c(OC)cc3CCN2C)c(Oc2cc3c(cc2OC)-c2c(OC)c(OC)cc4c2[C@H](C3)N(C)CC4)cc1OC
T/C (T/C endpoint: median tumor weight (est.), dose: 25.0 mg/kg/injection, schedule: Q07DX005 (ip), vehicle: saline, evaluated on day 30): 131 % of control
T/C (T/C endpoint: median tumor weight (est.), dose: 100.0 mg/kg/injection, schedule: Q07DX005 (ip), vehicle: saline, evaluated on day 30): 129 % of control

COc1cccc2c1C(=O)c1c(O)c3c(c(O)c1C2=O)C[C@@](O)(/C(CO)=N/NC(=O)c1ccc(Cl)c(Cl)c1)C[C@@H]3OC1CC(N)C(O)C(C)O1 (stereo not given in full)
T/C (T/C endpoint: mean tumor weight, dose: 0.75 mg/kg/injection, schedule: Q07DX006 (ip), vehicle: saline, evaluated on day 41): 125 % of control [9 of 10 alive]
survivor count (T/C endpoint: mean tumor weight, dose: 6.0 mg/kg/injection, schedule: Q07DX005 (ip), vehicle: saline): 6 of 10
T/C (T/C endpoint: mean tumor weight, dose: 6.0 mg/kg/injection, schedule: Q07DX006 (ip), vehicle: saline, evaluated on day 41): 132 % of control
survivor count (T/C endpoint: median tumor weight (est.), dose: 64.0 mg/kg/injection, schedule: Q07DX005 (ip), vehicle: suspension in saline): 3 of 10 on day 30

CO[C@H](/C(C)=C/C=C/C(C)=C/c1coc(C)n1)[C@H](C)[C@H]1C[C@@H](O)[C@@]2(C)O[C@H]2/C=C/[C@@H](C)[C@@H]2C[C@@H](CC(=O)O2)C[C@H]2O[C@@H]2C(=O)O1
T/C (T/C endpoint: median tumor weight change, dose: 0.12 mg/kg/injection, schedule: Q01DX001 (ip), vehicle: Klucel (hydroxypropylcellulose) (HPC), evaluated on day 27): 149 % of control

O=C(C#Cc1ccccc1)c1ccccc1
survivor count (T/C endpoint: median tumor weight (est.), dose: 6.25 mg/kg/injection, schedule: Q07DX005 (ip), vehicle: Klucel (hydroxypropylcellulose) (HPC)): 5 of 10 on day 30
survivor count (T/C endpoint: median tumor weight (est.), dose: 12.5 mg/kg/injection, schedule: Q07DX005 (ip), vehicle: Klucel (hydroxypropylcellulose) (HPC)): 5 of 10 on day 30
survivor count (T/C endpoint: median tumor weight (est.), dose: 25.0 mg/kg/injection, schedule: Q07DX005 (ip), vehicle: Klucel (hydroxypropylcellulose) (HPC)): 1 of 10 on day 30
survivor count (T/C endpoint: median tumor weight (est.), dose: 50.0 mg/kg/injection, schedule: Q07DX005 (ip), vehicle: Klucel (hydroxypropylcellulose) (HPC)): 0 of 10 on day 30
survivor count [2]: 0 of 10 on day 30

CC(=O)Nc1ccc(C(=O)C=O)cc1
survivor count (T/C endpoint: median tumor weight (est.), dose: 400.0 mg/kg/injection, schedule: Q07DX005 (ip), vehicle: saline with Tween-80): 5 of 10 on day 32

COC1C(O)C(C)OC(OC2C(Oc3cccc4c(O)c5c(=O)oc6ccc(C)c7c(=O)oc(c34)c5c67)OC(C)C(O)C2O)C1O (stereo not given)
survivor count [2]: 5 of 10 on day 30
survivor count [1]: 0 of 10 on day 30
survivor count (T/C endpoint: median tumor weight (est.), dose: 400.0 mg/kg/injection, schedule: Q07DX005 (ip), vehicle: Klucel (hydroxypropylcellulose) (HPC)): 0 of 10 on day 30

O=C(O)CC(=O)O.[NH-]C1CCCCC1[NH-].[Pt+2] (stereo not given)
survivor count (T/C endpoint: median tumor weight (est.), dose: 160.0 mg/kg/injection, schedule: Q07DX005 (ip), vehicle: dextrose): 3 of 10

C/C=C/C1=CC(=O)C(O)C1O (stereo not given)
survivor count (T/C endpoint: median tumor weight (est.), dose: 360.0 mg/kg/injection, schedule: Q07DX005 (ip), vehicle: water): 0 of 10 on day 30

C=CC(C)NC(=S)NNC(=S)NC (stereo not given)
T/C (T/C endpoint: median tumor weight change, dose: 31.25 mg/kg/injection, schedule: Q01DX001 (ip), vehicle: saline + alcohol, evaluated on day 28): 140 % of control

Nc1nc2c(C(=O)N3CCCC3)nnn2c2ccccc12
survivor count (T/C endpoint: median tumor weight change, dose: 250.0 mg/kg/injection, schedule: Q01DX001 (ip), vehicle: saline with Tween-80): 0 of 10 on day 31
survivor count (T/C endpoint: median tumor weight change, dose: 500.0 mg/kg/injection, schedule: Q01DX001 (ip), vehicle: saline with Tween-80): 0 of 10 on day 31
survivor count (T/C endpoint: median tumor weight change, dose: 1000.0 mg/kg/injection, schedule: Q01DX001 (ip), vehicle: saline with Tween-80): 0 of 10 on day 31

COc1cccc2c1C(=O)c1c(O)c3c(c(O)c1C2=O)C[C@@](O)(C(=O)CO)C[C@@H]3OC1CC(N)CC(C)O1 (stereo not given in full)
survivor count (T/C endpoint: median tumor weight change, dose: 7.5 mg/kg/injection, schedule: Q01DX001 (ip), vehicle: water): 1 of 10 on day 28
survivor count (T/C endpoint: median tumor weight change, dose: 15.0 mg/kg/injection, schedule: Q01DX001 (ip), vehicle: water): 0 of 10 on day 28
survivor count (T/C endpoint: median tumor weight change, dose: 30.0 mg/kg/injection, schedule: Q01DX001 (ip), vehicle: water): 0 of 10 on day 28

CC(=O)Oc1ccccc1O
survivor count (T/C endpoint: median tumor weight change, dose: 500.0 mg/kg/injection, schedule: Q01DX001 (ip), vehicle: saline + Tween-80 + alcohol): 0 of 10 on day 35
survivor count (T/C endpoint: median tumor weight change, dose: 1000.0 mg/kg/injection, schedule: Q01DX001 (ip), vehicle: saline + Tween-80 + alcohol): 0 of 10 on day 35

CN(C)[C@@H]1C(=O)C(C(N)=O)=C(O)[C@@]2(O)C(=O)C3=C(O)c4c(O)ccc(Cl)c4[C@@](C)(O)[C@H]3C[C@@H]12
survivor count (T/C endpoint: median tumor weight change, dose: 500.0 mg/kg/injection, schedule: Q01DX001 (ip), vehicle: suspension in saline): 3 of 10 on day 26

COc1cccc2c1C(=O)c1c(O)c3c(c(O)c1C2=O)C[C@@](O)(C(=O)CO)C[C@@H]3OC1CC(OC(C)=O)C(OC(C)=O)C(C)O1 (stereo not given in full)
survivor count (T/C endpoint: median tumor weight (est.), dose: 50.0 mg/kg/injection, schedule: Q07DX005 (ip), vehicle: distilled water + Tween-80): 5 of 10 on day 30
survivor count (T/C endpoint: median tumor weight (est.), dose: 100.0 mg/kg/injection, schedule: Q07DX005 (ip), vehicle: distilled water + Tween-80): 0 of 10 on day 30

CC(=O)OC(C)C1C2=C(C(=O)CC1(C)O)C(=O)c1c(ccc(-c3ccc4c(c3O)C(=O)C3=C(C4=O)C(C(C)OC(C)=O)C(C)(O)CC3=O)c1O)C2=O (stereo not given)
survivor count (T/C endpoint: median tumor weight change, dose: 60.0 mg/kg/injection, schedule: Q01DX001 (ip), vehicle: saline with Tween-80): 4 of 10 on day 32
survivor count (T/C endpoint: median tumor weight change, dose: 120.0 mg/kg/injection, schedule: Q01DX001 (ip), vehicle: saline with Tween-80): 1 of 10 on day 32

O=c1[nH]c2c(ccc3cnccc32)c2c1CCC2
T/C (T/C endpoint: median tumor weight (est.), dose: 12.5 mg/kg/injection, schedule: Q07DX005 (ip), vehicle: saline, evaluated on day 30): 131 % of control

From PubChem BioAssay AID220 (DTP/NCI, 2004)
